Experimental data taken from patent publication US20260016464A1, “METHOD FOR CHARACTERIZING, TYPING AND IDENTIFYING CELLS AND USE THEREOF” (Yigong Ruixin (Xiamen) Technology Co., Ltd, priority 2023, published 2026).
At least one compound was matched to its structure with a doubt left.

System: cardiomyocytes
Experiment: Cardiomyocyte contraction-relaxation frequency on in vitro organ chip (high-speed photography of mechanical changes)
Type: cell-based
Conditions: mouse cardiomyocytes cultured on chip, after adding the drug

COC(=O)C1=C(C)NC(C)=C(C(=O)OC)C1c1ccccc1[N+](=O)[O-] [Nifedipine]
contraction frequency of cardiomyocytes: slowed contraction frequency
